Laboratory results reported in the supplement of paper PMC10735217.
Where a name gives a salt, the structure may show the parent alone. Some of the results follow. Single values are uncertain here, since repeats match poorly.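 In a drug-repurposing library screen, luminescence reads luciferase driven by eight TEAD-binding elements, stably integrated into human kidney-derived cells. Compounds scoring over five robust Z scores above the plate mean are called hits.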

System: HEK293A TEAD-LUC reporter
Test: TEAD-luciferase reporter activity (YAP activation), robust Z score vs plate; higher = stronger YAP/TEAD activation
Conditions: 24 h

Row | SMILES | TEAD-luciferase reporter activity (compound concentration: 200 nM) | TEAD-luciferase reporter activity (compound concentration: 2 uM) | TEAD-luciferase reporter activity (compound concentration: 10 uM)
1 | O=c1c(-c2ccc(O)cc2)coc2cc(O)cc(O)c12 | inactive: -1.49 | inactive: 0.133 | inactive: 1.1
2 | O=C(O)/C=C/c1ccc(O)cc1 [p-Hydroxycinnamic acid] | inactive: 2 | inactive: -0.0922 | inactive: 0.613
3 | O=C(OCCOCCN1CCCCC1)N1c2ccccc2Sc2cccnc21 | inactive: -1.95 | inactive: -0.295 | inactive: 1.13
4 | CC(C)(O)c1ccc2c(c1)ncn2-c1cccc(-c2ccccc2C#N)c1 | inactive: 0.871 | inactive: -1.51 | inactive: -0.931
5 | CC(=O)N(C)c1ccc(Nc2cc(C)nc3ccc4nc[nH]c4c23)cc1 [Acodazole HCl] | inactive: -0.859 | – | inactive: -0.541
6 | CC(=O)N(C)c1ccc(Nc2cc(C)nc3ccc4nc[nH]c4c23)cc1 | – | inactive: 1.12 | –
7 | CC(C)(N)C(=O)N[C@H](COCc1ccccc1)C(=O)N1CCC2(CC1)CN(S(C)(=O)=O)c1ccccc12 [Ibutamoren mesilate] | inactive: -0.938 | inactive: -1.07 | inactive: -0.739
8 | CC(C)O | inactive: -0.951 | inactive: -0.485 | inactive: 0.105
9 | CO/N=C1/C[C@@H](C(=O)NC[C@@H](O)c2ccccc2)N(C(=O)c2ccc(-c3ccccc3C)cc2)C1 | inactive: -0.295 | inactive: -0.458 | inactive: 0.367
10 | COc1cccc(C(=O)NC2CCCN(Cc3ccc(-c4cccc(OC)c4)cc3)C2)c1 (stereo unspecified) | inactive: 0.222 | – | inactive: 0.484
11 | NC(=O)c1cccc2c(NC(CN3CCC3)c3ccc(Cl)c(C(F)(F)F)c3)ncnc12 (stereo unspecified) | inactive: -0.251 | inactive: -0.433 | inactive: -1.48
12 | COc1cc(N)c(Cl)cc1C(=O)NC1CCN(Cc2ccccc2)CC1 [clebopride] | inactive: 1.68 | inactive: -1.09 | inactive: 2.59
13 | CC(C)[C@@H]1CC[C@@H](C)C[C@H]1OC(=O)[C@@H]1CCC(=O)N1 | inactive: -1.29 | inactive: 1.05 | inactive: -0.86
14 | COc1ccc(CNc2nnc(N3CCC(O)CC3)c3ccc(C#N)cc23)cc1Cl | inactive: -2.08 | inactive: -1.31 | inactive: -0.644
15 | C[C@@H](NCCCn1ccnc1)c1ccccc1Cl | inactive: -0.797 | inactive: 0.0292 | inactive: -1.81
16 | Cc1c(C)c2c(c(C)c1O)CC[C@@](C)(C(=O)N[C@@H]1CCCNC1)O2 | inactive: -0.228 | inactive: -0.667 | inactive: -1.49
17 | Cc1ncc(COC(=O)C(C)c2ccc(CC(C)C)cc2)c(CO)c1O (stereo unspecified) [piridoxiprofen] | inactive: -0.914 | inactive: -0.108 | inactive: 0.464
18 | COc1ccc(F)c(F)c1C(=O)c1cnc(NC2CCN(S(C)(=O)=O)CC2)nc1N | inactive: -0.73 | inactive: -2.69 | inactive: 1.9
19 | c1cn2cc(-c3ccc4c(c3)nc3n4CCN4CCCCC4C3)ccc2n1 (stereo unspecified) | inactive: -0.411 | inactive: -0.681 | inactive: 1

Row | SMILES | TEAD-luciferase reporter activity (compound concentration: 200 nM) | TEAD-luciferase reporter activity (compound concentration: 2 uM) | TEAD-luciferase reporter activity (compound concentration: 10 uM)
20 | O=C(c1ccc(F)cc1)c1ccccc1N[C@@H](Cc1ccc(OCCn2c3ccccc3c3ccccc32)cc1)C(=O)O [Chiglitazar] | inactive: -0.567 | inactive: -0.651 | inactive: 2.54
21 | CC1(C(=O)O)CCN(C(=O)c2ccc3c(c2)OC(F)(F)O3)CC1 | inactive: 2.4 | – | inactive: 4.47
22 | CCc1ccc(/C=C2\SC(=N)NC2=O)cc1 | active: 5.09 | inactive: 3.31 | inactive: 2.07
23 | CCCNC(=O)COc1c(C(=O)Cc2c(Cl)cncc2Cl)ccc(OC)c1OC | inactive: 0.477 | inactive: -0.333 | inactive: -1.32
24 | COC(=O)N[C@H](C(=O)N1CCC[C@H]1c1nc2cc([C@H]3CC[C@H](c4cc5nc([C@@H]6CCCN6C(=O)[C@@H](NC(=O)OC)[C@@H](C)OC)[nH]c5cc4F)N3c3cc(F)c(N4CCC(c5ccc(F)cc5)CC4)c(F)c3)c(F)cc2[nH]1)[C@@H](C)OC [Pibrentasvir] | inactive: -1.01 | inactive: -1.57 | inactive: -0.0619
25 | NS(=O)(=O)c1ccc(N2C(=O)CC(c3ccccc3)C2=O)c(Cl)c1 (stereo unspecified) | inactive: -1.21 | inactive: -0.59 | inactive: -2.07
26 | C[C@@H]1CN(c2nc3c(cc2F)c(=O)c(C(=O)O)cn3C(C)(C)C)C[C@H]1N | inactive: 0.211 | inactive: 0.569 | inactive: 3.61
27 | O=C1N=C(O)NC1(c1ccccc1)c1ccccc1 [phenytoin sodium] | inactive: 2.05 | – | inactive: 1.77
28 | O=C1N=C(O)NC1(c1ccccc1)c1ccccc1 [Phenytoin sodium] | – | inactive: 3.35 | –
29 | COC(=O)C1c2cc3c(c(O)c2C(O[C@@H]2O[C@@H](C)[C@H](OC)[C@@](C)(OC)[C@H]2OC)CC1(C)O)C(=O)c1c(O)cc2c(c1C3=O)OC1OC2(C)C(O)C(N(C)C)C1O (stereo partly specified) [Nogalamycin] | inactive: -1.09 | inactive: 0.531 | inactive: 1.41
30 | Cc1c(CC(C)C)sc2nc(C(=O)O)[nH]c(=O)c12 [tiprinast] | inactive: 0.795 | inactive: -0.419 | inactive: 2.93
31 | CC[N+](CC)(CCO)C1c2ccccc2-c2ccccc21 | inactive: -1.63 | inactive: -1.34 | inactive: 0.583
32 | O=C(CCOc1ccc(Cl)cc1Cl)NC[C@H]1CN(c2ccc(N3CCOCC3)c(F)c2)C(=O)O1 | inactive: -0.349 | inactive: -0.658 | inactive: 2.21
33 | CC(C)Cc1c[nH]c(C(=O)O)c1 | inactive: 0.0627 | inactive: 1.38 | inactive: 1.38
34 | COc1cc2cc(C3=NNC(=O)CC3C)sc2cc1OC (stereo unspecified) | inactive: 0.298 | inactive: -0.245 | inactive: -0.943
35 | O=C1CCC[C@H](c2ccccc2)C1 | inactive: -0.238 | inactive: 0.0571 | inactive: -0.52
36 | CCOC(=O)c1cnc2cc(OCC(C)C)c(OCC(C)C)cc2c1O | inactive: 1.3 | – | inactive: -0.429
37 | CCOC(=O)c1cnc2cc(OCC(C)C)c(OCC(C)C)cc2c1O [Buquinolate] | – | inactive: 0.974 | –
38 | CCC(C)NC(C)(C)C(C)C (stereo unspecified) | inactive: -1.12 | inactive: -1.86 | inactive: 0.652

Quoted from the listing.
Entry of COC(=O)C1c2cc3c(c(O)c2C(O[C@@H]2O[C@@H](C)[C@H](OC)[C@@](C)(OC)[C@H]2OC)CC1(C)O)C(=O)c1c(O)cc2c(c1C3=O)OC1OC2(C)C(O)C(N(C)C)C1O (stereo partly specified) [Nogalamycin] under TEAD-luciferase reporter activity (compound concentration: 10 uM): inactive: 1.41
Entry of CCOC(=O)c1cnc2cc(OCC(C)C)c(OCC(C)C)cc2c1O [Buquinolate] under TEAD-luciferase reporter activity (compound concentration: 2 uM): inactive: 0.974
Entry of O=C1CCC[C@H](c2ccccc2)C1 under TEAD-luciferase reporter activity (compound concentration: 200 nM): inactive: -0.238
Entry of CCC(C)NC(C)(C)C(C)C (stereo unspecified) under TEAD-luciferase reporter activity (compound concentration: 200 nM): inactive: -1.12

More results follow:

Row | SMILES | TEAD-luciferase reporter activity (compound concentration: 200 nM) | TEAD-luciferase reporter activity (compound concentration: 2 uM) | TEAD-luciferase reporter activity (compound concentration: 10 uM)
39 | C[C@H]1C[C@@H](n2c(Nc3ccc(OC(F)(F)F)cc3)nc3cc(CCC(=O)O)ccc32)CC(C)(C)C1 | inactive: -0.157 | inactive: -1.33 | inactive: -0.227
40 | NC1CCN(c2cccc(Cl)n2)CC1 | inactive: 0.405 | inactive: -1.14 | inactive: 0.804
41 | Cc1c(-c2ccc(C(=O)N3CCC(C#N)CC3)s2)noc1C(F)(F)F | inactive: -1.08 | inactive: 0.574 | inactive: -1.19
42 | Cc1nnc(SCC2=C(C(=O)O)N3C(=O)[C@@H](NC(=O)Cn4cc(Cl)c(=O)c(Cl)c4)[C@H]3SC2)s1 [cefazedone sodium] | inactive: -0.546 | inactive: -0.767 | inactive: 0.196
43 | CCOc1nc2cccc(C(=O)OC(C)OC(=O)C3C[C@H](OC)[C@@H](O[N+](=O)[O-])C3)c2n1Cc1ccc(-c2ccccc2-c2nnn[nH]2)cc1 (stereo partly specified) | inactive: -0.95 | inactive: -1.04 | inactive: 2
44 | CC[C@H]1OC(=O)[C@H](C)C(=O)[C@H](C)[C@@H](O[C@@H]2O[C@H](C)C[C@H](N(C)C)[C@H]2O)[C@](C)(OC)C[C@@H](C)C(=O)[C@H](C)[C@H]2N(NCCCc3ccnc4ccccc34)C(=O)O[C@]12C | inactive: 0.631 | inactive: 0.528 | inactive: 1.79
45 | COc1cc(CC(=O)N[C@@H](CC(C)C)c2cc(CCC(=O)O)on2)ccc1NC(=O)Nc1ccccc1C | inactive: 0.312 | inactive: 0.926 | inactive: 3.64
46 | O=C(c1ccc2c(c1)OCO2)N1CCN(C2CCNCC2)C(=O)C1 | inactive: 1.44 | – | inactive: 2.5
47 | Cc1nc(C)c(C)nc1C [Ligustrazine HCl] | – | inactive: -0.895 | –
48 | Cc1nc(C)c(C)nc1C [Chuanxiongzine] | inactive: -0.195 | inactive: -2.13 | active: 5.61
49 | Cc1cc(C)nc(NS(=O)(=O)c2ccc(/N=N/c3ccc(O)c(C(=O)O)c3)cc2)n1 | inactive: 0.645 | inactive: -0.886 | inactive: -0.837
50 | CCCCCCCCCCCCCCCCCCOP(=O)(O)OC[C@H]1O[C@@H](n2ccc(N)nc2=O)[C@@H](O)[C@@H]1O | inactive: -1.18 | inactive: -0.0773 | inactive: 1.53
51 | Cc1cccc(C)c1CNc1cc(C(=O)NCCO)cn2c(C)c(C)nc12 [Linaprazan] | inactive: -1.17 | inactive: -0.901 | inactive: -1.84
52 | Cn1c(=O)c2[nH]cnc2n(C)c1=O [Aminophylline] | inactive: -0.552 | inactive: -1.2 | inactive: 0.223
53 | COc1cc(/C=C/C(=O)OCCCCO[N+](=O)[O-])ccc1OC(=O)CC[C@@H](C)[C@H]1CC[C@H]2[C@@H]3[C@@H](O)C[C@@H]4C[C@H](O)CC[C@]4(C)[C@H]3CC[C@]12C | inactive: 3.02 | inactive: -1.22 | inactive: -0.657
54 | O=C(O)CCC(=O)NCCc1c[nH]cn1 | inactive: -1.24 | inactive: -1.27 | inactive: -0.842
55 | CC(=O)[C@]1(O)Cc2c(O)c3c(c(O)c2[C@@H](O[C@H]2C[C@H](N)[C@H](O)[C@H](C)O2)C1)C(=O)c1ccccc1C3=O [idarubicin hydrochloride] | inactive: -0.465 | – | inactive: 1.69
56 | CC(=O)[C@]1(O)Cc2c(O)c3c(c(O)c2[C@@H](O[C@H]2C[C@H](N)[C@H](O)[C@H](C)O2)C1)C(=O)c1ccccc1C3=O [idarubicin] | – | inactive: -4.1 | –
